Experimental data reported in patent publication EP0852142A1, “Diamines in the treatment of arrhythmia” (SMITHKLINE BEECHAM LABORATOIRES PHARMACEUTIQUES, priority 1992, dated 1993).

Tested on: guinea pig papillary muscles
Assay: Electrophysiological studies: transmembrane action potentials of isolated papillary muscle
Format: cell-based, Guinea pigs
Method: Guinea pigs (300-350 g) were anesthetized by intravenous injection of sodium pentobarbital (60 mg/kg). After thoracotomy the heart was rapidly excised and placed in oxygenated Tyrode solution. Papillary muscles were removed from the right ventricle. Preparations were then fixed to the silastic base of a 5 ml organ bath and superfused with oxygenated Tyrode solution maintained at 37 ± 1 °C.
The solution was equilibrated with a gas mixture of 95% O2 - 5% CO2.
After a stabilisation period (at least 1 h), transmembrane action potentials were recorded with conventional microelectrodes (10 MOhm) connected to a high input impedance amplifier (BIOLOGIC VF 180). External stimuli were delivered to the preparation with bipolar platinum electrodes placed at one end of the muscle. The pulse duration was 1 ms and the amplitude was twice threshold. The basic cycle length was 1000 ms (PULSAR 6i stimulator). The signals were monitored on a storage oscilloscope (GOULD 1602) and simultaneously recorded on a digital tape recorder (BIOLOGIC DTR 1200) for further analysis.
Measurements were made of resting membrane potential (RMP), action potential amplitude (APA) and action potential durations at 30, 50 and 90% repolarization (APD30, APD50 and APD90 respectively). Recordings were made after 30 min of equilibration for each concentration. Only recordings in which the same impalement was maintained throughout the entire experiment were used for analysis.

## COc1ccc(CCN(C)CCCN(C(=O)c2ccc([N+](=O)[O-])cc2)c2ccc(OC)c(OC)c2)cc1OC [Compound I, (N-[3,4-dimethoxy-phenyl]-N-3-[N'-2-(3,4-dimethoxyphenyl)-ethyl-N'-methylamino]propyl)-N'-4-nitrobenzamide]
0.3 µM, action potential amplitude
  APA: 128 ± 1 mV
0.3 µM, action potential duration at 30 % of the repolarization
  APD30: 114 ± 4 ms
0.3 µM, action potential duration at 90 % of the repolarization
  APD90: 206 ± 8 ms
1 µM
  APA: 127 ± 1 mV
  APD30: 111 ± 5 ms
  APD90: 222 ± 7 ms
3 µM
  APA: 126 ± 1 mV
  APD30: 103 ± 6 ms
  APD90: 218 ± 6 ms
10 µM
  APA: 125 ± 1 mV
  APD30: 84 ± 5 ms
  APD90: 198 ± 6 ms
